Test results: patent US12351591B2, “KRas inhibitors” (ELI LILLY AND COMPANY, priority 2022, dated 2025)
Some entries share one result that the patent states for a list of compounds.

By UniProt entry, the sequences of proteins in these tests, tags left out. Residues count along the entry.
UniProt P01116, 1-188 isoform P01116-2 G12D: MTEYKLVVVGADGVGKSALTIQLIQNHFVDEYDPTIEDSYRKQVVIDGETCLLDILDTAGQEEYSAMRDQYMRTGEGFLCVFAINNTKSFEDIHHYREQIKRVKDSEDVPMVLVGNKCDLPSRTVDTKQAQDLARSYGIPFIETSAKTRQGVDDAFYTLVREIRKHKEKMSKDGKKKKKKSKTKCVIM

Biological target: T1, KRas G12D (Homo sapiens, UniProt P01116, G12D)
T1 construct: host or cells: PANC-1
Assay: PANC-1 Cellular Active RAS GTPase ELISA (KRas G12D Mutation)
Type: cell-based
Conditions: PANC-1 cells, 2 hours; read-out: relative IC50, inhibition of constitutive RAS GTPase activity (KRas G12D mutant)

SMILES	IC50
C[C@@H](O)CN1CC2CCC(C1)N2c1nc(OCC23CCCN2CCC3)nc2c(F)c(-c3ncc(F)c4sc(N)c(C#N)c34)c3c(c12)COC3 [Example 247, 2-Amino-7-fluoro-4-[5-fluoro-3-(1,2,3,5,6,7-hexahydropyrrolizin-8-ylmethoxy)-1-[3-[(2R)-2-hydroxypropyl]-3,8-diazabicyclo[3.2.1]octan-8-yl]-7,9-dihydrofuro[3,4-f]quinazolin-6-yl]thieno[3,2-c]pyridine-3-carbonitrile]	< 100 nM
Nc1nc2c(-c3c4c(c5c(N6C7CCC6CN(CCCO)C7)nc(OC[C@@]67CCCN6C[C@H](F)C7)nc5c3F)COC4)c(F)cc(F)c2s1 [Example 194, 3-[8-[6-(2-Amino-5,7-difluoro-1,3-benzothiazol-4-yl)-5-fluoro-3-[[(2R,8S)-2-fluoro-1,2,3,5,6,7-hexahydropyrrolizin-8-yl]methoxy]-7,9-dihydrofuro[3,4-f]quinazolin-1-yl]-3,8-diazabicyclo[3.2.1]octan-3-yl]propan-1-ol]	< 100 nM
COCCCN1CC2CCC(C1)N2c1nc(OC[C@@]23CCCN2C[C@H](OC)C3)nc2c(F)c(-c3ncc(F)c4sc(N)c(C#N)c34)c3c(c12)COC3 [Example 232, 2-Amino-7-fluoro-4-[5-fluoro-3-[[(2R,8S)-2-methoxy-1,2,3,5,6,7-hexahydropyrrolizin-8-yl]methoxy]-1-[3-(3-methoxypropyl)-3,8-diazabicyclo[3.2.1]octan-8-yl]-7,9-dihydrofuro[3,4-f]quinazolin-6-yl]thieno[3,2-c]pyridine-3-carbonitrile]	< 100 nM
N#CCC1OCc2c(-c3ccc(F)c4sc(N)c(C#N)c34)c(F)c3ncnc(N4C[C@H]5C[C@@H]4CN5)c3c21 (single isomer, unassigned; isomer 1) [Example 4]	< 100 nM
N#Cc1c(N)sc2cccc(-c3c4c(c5c(N6C7CCC6CNC7)nc(OC[C@@]67CCCN6C[C@H](F)C7)nc5c3F)COC4)c12 [Example 23, 2-Amino-4-[1-(3,8-diazabicyclo[3.2.1]octan-8-yl)-5-fluoro-3-[[(2R,8S)-2-fluoro-1,2,3,5,6,7-hexahydropyrrolizin-8-yl]methoxy]-7,9-dihydrofuro[3,4-f]quinazolin-6-yl]benzothiophene-3-carbonitrile]	< 100 nM
C[C@@H](O)CN1CC2CC(C1)N2c1nc(OC[C@@H]2C[C@@H](F)CN2C)nc2c(F)c(-c3c(F)ccc4sc(N)c(C#N)c34)c3c(c12)COC3 (single isomer, unassigned) [Example 368]	< 100 nM
CN1CCC[C@H]1COc1cc(N2C3CCC2CNC3)c2c3c(c(-c4ccc(F)c5sc(N)c(C#N)c45)c(Cl)c2n1)COC3 [Example 16, 2-Amino-4-[5-chloro-9-(3,8-diazabicyclo[3.2.1]octan-8-yl)-7-[[(2S)-1-methylpyrrolidin-2-yl]methoxy]-1,3-dihydrofuro[3,4-f]quinolin-4-yl]-7-fluoro-benzothiophene-3-carbonitrile]	< 100 nM
N#Cc1c(N)sc2ccnc(-c3c4c(c5c(N6C7CCC6CN(CC6COC6)C7)nc(OC[C@@]67CCCN6C[C@H](F)C7)nc5c3F)COC4)c12 [Example 117, 2-Amino-4-[5-fluoro-3-[[(2R,8S)-2-fluoro-1,2,3,5,6,7-hexahydropyrrolizin-8-yl]methoxy]-1-[3-(oxetan-3-ylmethyl)-3,8-diazabicyclo[3.2.1]octan-8-yl]-7,9-dihydrofuro[3,4-f]quinazolin-6-yl]thieno[3,2-c]pyridine-3-carbonitrile]	< 100 nM
CN1CC[C@H]1COc1nc(N2C3CCC2CN(CCCO)C3)c2c3c(c(-c4c(F)ccc5sc(N)c(C#N)c45)c(F)c2n1)COC3 (single isomer, unassigned) [Example 148]	< 100 nM
COCCCN1CC2CCC(C1)N2c1nc(OCC23CCCN2CCC3)nc2c(F)c(-c3ncc(F)c4sc(N)c(C#N)c34)c3c(c12)COC3.O=CO [Example 239, 2-Amino-7-fluoro-4-[5-fluoro-3-(1,2,3,5,6,7-hexahydropyrrolizin-8-ylmethoxy)-1-[3-(3-methoxypropyl)-3,8-diazabicyclo[3.2.1]octan-8-yl]-7,9-dihydrofuro[3,4-f]quinazolin-6-yl]thieno[3,2-c]pyridine-3-carbonitrile formic acid]	< 100 nM
Cc1nc(N2C[C@H]3C[C@@H]2CN3)c2c3c(c(-c4ccc(F)c5sc(N)c(C#N)c45)c(F)c2n1)COC3 [Example 12, 2-Amino-4-[1-[(1R,4R)-2,5-diazabicyclo[2.2.1]heptan-2-yl]-5-fluoro-3-methyl-7,9-dihydrofuro[3,4-f]quinazolin-6-yl]-7-fluoro-benzothiophene-3-carbonitrile]	< 100 nM
N#Cc1c(N)sc2c(F)cnc(-c3c4c(c5c(N6C7CCC6CN(CCOCCO)C7)nc(OC[C@@]67CCCN6C[C@H](F)C7)nc5c3F)COC4)c12 [Example 224, 2-Amino-7-fluoro-4-[5-fluoro-3-[[(2R,8S)-2-fluoro-1,2,3,5,6,7-hexahydropyrrolizin-8-yl]methoxy]-1-[3-[2-(2-hydroxyethoxy)ethyl]-3,8-diazabicyclo[3.2.1]octan-8-yl]-7,9-dihydrofuro[3,4-f]quinazolin-6-yl]thieno[3,2-c]pyridine-3-carbonitrile]	< 100 nM
COCCN1CC2CCC(C1)N2c1nc(OCC23CCCN2CC(OC)C3)nc2c(F)c(-c3ncc(F)c4sc(N)c(C#N)c34)c3c(c12)COC3 (centres unmarked) [Example 131, 2-Amino-7-fluoro-4-[5-fluoro-1-[3-(2-methoxyethyl)-3,8-diazabicyclo[3.2.1]octan-8-yl]-3-[(2-methoxy-1,2,3,5,6,7-hexahydropyrrolizin-8-yl)methoxy]-7,9-dihydrofuro[3,4-f]quinazolin-6-yl]thieno[3,2-c]pyridine-3-carbonitrile]	< 100 nM
C[C@@H](O)CN1CC2CCC(C1)N2c1nc(OC[C@@H]2[C@@H](F)CCN2C)nc2c(F)c(-c3ncc(F)c4sc(N)c(C#N)c34)c3c(c12)COC3 [Example 351, 2-Amino-7-fluoro-4-[5-fluoro-3-[[(2R,3S)-3-fluoro-1-methyl-pyrrolidin-2-yl]methoxy]-1-[3-[(2R)-2-hydroxypropyl]-3,8-diazabicyclo[3.2.1]octan-8-yl]-7,9-dihydrofuro[3,4-f]quinazolin-6-yl]thieno[3,2-c]pyridine-3-carbonitrile]	< 100 nM
N#Cc1c(N)sc2c(F)ccc(-c3c4c(c5ccc(O[C@H]6CCOC6)nc5c3Cl)COC4)c12 (single isomer, unassigned; isomer 2) [Example 33]	< 100 nM
CO[C@H]1CN2CCC[C@@]2(COc2nc(N3C4CCC3CN(C[C@H]3CCO3)C4)c3c4c(c(-c5ncc(F)c6sc(N)c(C#N)c56)c(F)c3n2)COC4)C1.CS(=O)(=O)O [Example 234, 2-amino-7-fluoro-4-[5-fluoro-3-[[(2R,8S)-2-methoxy-1,2,3,5,6,7-hexahydropyrrolizin-8-yl]methoxy]-1-[3-[[(2R)-oxetan-2-yl]methyl]-3,8-diazabicyclo[3.2.1]octan-8-yl]-7,9-dihydrofuro[3,4-f]quinazolin-6-yl]thieno[3,2-c]pyridine-3-carbonitrile methanesulfonic acid]	< 100 nM
CO[C@@H](C)CN1CC2CCC(C1)N2c1nc(OC[C@@]23CCCN2C[C@H](F)C3)nc2c(F)c(-c3ncc(F)c4sc(N)c(C#N)c34)c3c(c12)COC3 [Example 128, 2-Amino-7-fluoro-4-[5-fluoro-3-[[(2R,8S)-2-fluoro-1,2,3,5,6,7-hexahydropyrrolizin-8-yl]methoxy]-1-[3-[(2S)-2-methoxypropyl]-3,8-diazabicyclo[3.2.1]octan-8-yl]-7,9-dihydrofuro[3,4-f]quinazolin-6-yl]thieno[3,2-c]pyridine-3-carbonitrile]	< 100 nM
CN1CC2CCC(C1)N2c1nc(OC[C@@]23CCCN2C[C@H](F)C3)nc2c(F)c(-c3cccc4oc(N)c(C#N)c34)c3c(c12)COC3 [Example 54, 2-Amino-4-[5-fluoro-3-[[(2R,8S)-2-fluoro-1,2,3,5,6,7-hexahydropyrrolizin-8-yl]methoxy]-1-(3-methyl-3,8-diazabicyclo[3.2.1]octan-8-yl)-7,9-dihydrofuro[3,4-f]quinazolin-6-yl]benzofuran-3-carbonitrile]	< 100 nM
CN1CC2CC(C1)N2c1nc(OC[C@@H]2CCCN2C)nc2c(F)c(-c3ncc(F)c4sc(N)c(C#N)c34)c3c(c12)COC3 [Example 342, 2-Amino-7-fluoro-4-[5-fluoro-1-(3-methyl-3,6-diazabicyclo[3.1.1]heptan-6-yl)-3-[[(2S)-1-methylpyrrolidin-2-yl]methoxy]-7,9-dihydrofuro[3,4-f]quinazolin-6-yl]thieno[3,2-c]pyridine-3-carbonitrile; acetic acid]	< 100 nM
CC(=O)O[C@H](C)CN1CC2CCC(C1)N2c1nc(OC[C@@]23CCCN2C[C@H](F)C3)nc2c(F)c(-c3ncc(F)c4sc(N)c(C#N)c34)c3c(c12)COC3 [Example 222, [(1R)-2-[8-[6-(2-Amino-3-cyano-7-fluoro-thieno[3,2-c]pyridin-4-yl)-5-fluoro-3-[[(2R,8S)-2-fluoro-1,2,3,5,6,7-hexahydropyrrolizin-8-yl]methoxy]-7,9-dihydrofuro[3,4-f]quinazolin-1-yl]-3,8-diazabicyclo[3.2.1]octan-3-yl]-1-methyl-ethyl] acetate]	< 100 nM
N#Cc1c(N)oc2ccc(F)c(-c3c4c(c5c(N6C7CCC6CNC7)ncnc5c3F)COC4)c12 (single isomer, unassigned; isomer 2) [Example 15, 2-Amino-4-[1-(3,8-diazabicyclo[3.2.1]octan-8-yl)-5-fluoro-7,9-dihydrofuro[3,4-f]quinazolin-6-yl]-5-fluoro-benzofuran-3-carbonitrile, Isomer 2]	< 100 nM
N#Cc1c(N)sc2ccc(F)c(-c3c4c(c5c(N6C7CCC6CN(C[C@H](O)C(F)(F)F)C7)nc(OC[C@@]67CCCN6C[C@H](F)C7)nc5c3F)COC4)c12 (single isomer, unassigned) [Example 163]	< 100 nM
N#Cc1c(N)sc2ccc(F)c(-c3c4c(c5c(N6C7CNCC6C7)nc(OC[C@@]67CCCN6C[C@H](F)C7)nc5c3F)COC4)c12 [Example 58, 2-Amino-4-[1-(3,6-diazabicyclo[3.1.1]heptan-6-yl)-5-fluoro-3-[[(2R,8S)-2-fluoro-1,2,3,5,6,7-hexahydropyrrolizin-8-yl]methoxy]-7,9-dihydrofuro[3,4-f]quinazolin-6-yl]-5-fluoro-benzothiophene-3-carbonitrile]	< 100 nM
